Measured values from paper PMC6824560, “Insight into the relationship between aryl-hydrocarbon receptor and β-catenin in human colon cancer cells” (PLoS ONE, 2019).
No constants are given. Whether binding was seen depends on the method and setting. Binding seen in cells or lysates may run through a third protein. A result given as binding can be weak or reduced; the word gives no strength.

By UniProt entry, the sequences of proteins in these tests, tags left out. Where a name states a change or a piece, a line headed by the entry shows the natural chain unless it says otherwise.
UniProt P30561: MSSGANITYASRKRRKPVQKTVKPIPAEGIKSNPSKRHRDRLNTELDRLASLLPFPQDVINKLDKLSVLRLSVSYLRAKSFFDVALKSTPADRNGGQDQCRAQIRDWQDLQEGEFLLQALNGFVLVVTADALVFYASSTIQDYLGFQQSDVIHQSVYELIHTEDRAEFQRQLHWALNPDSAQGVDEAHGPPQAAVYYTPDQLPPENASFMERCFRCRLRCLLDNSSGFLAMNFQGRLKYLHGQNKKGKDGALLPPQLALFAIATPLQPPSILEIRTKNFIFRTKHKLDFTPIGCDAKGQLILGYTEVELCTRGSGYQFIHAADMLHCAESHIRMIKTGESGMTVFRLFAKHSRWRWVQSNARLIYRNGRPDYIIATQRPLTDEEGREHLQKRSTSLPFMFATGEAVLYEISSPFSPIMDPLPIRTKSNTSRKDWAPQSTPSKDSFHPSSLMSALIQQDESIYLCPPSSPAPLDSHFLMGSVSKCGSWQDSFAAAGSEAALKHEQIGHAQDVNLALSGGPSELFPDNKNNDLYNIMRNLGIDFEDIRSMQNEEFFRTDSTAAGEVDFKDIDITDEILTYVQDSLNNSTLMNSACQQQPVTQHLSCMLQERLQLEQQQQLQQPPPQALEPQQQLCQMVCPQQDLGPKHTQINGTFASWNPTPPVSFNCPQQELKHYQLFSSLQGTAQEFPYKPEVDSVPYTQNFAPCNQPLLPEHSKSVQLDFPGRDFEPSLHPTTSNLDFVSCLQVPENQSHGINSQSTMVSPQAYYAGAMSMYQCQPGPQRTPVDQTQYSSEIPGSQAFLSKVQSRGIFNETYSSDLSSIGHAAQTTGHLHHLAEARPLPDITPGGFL
UniProt P35222: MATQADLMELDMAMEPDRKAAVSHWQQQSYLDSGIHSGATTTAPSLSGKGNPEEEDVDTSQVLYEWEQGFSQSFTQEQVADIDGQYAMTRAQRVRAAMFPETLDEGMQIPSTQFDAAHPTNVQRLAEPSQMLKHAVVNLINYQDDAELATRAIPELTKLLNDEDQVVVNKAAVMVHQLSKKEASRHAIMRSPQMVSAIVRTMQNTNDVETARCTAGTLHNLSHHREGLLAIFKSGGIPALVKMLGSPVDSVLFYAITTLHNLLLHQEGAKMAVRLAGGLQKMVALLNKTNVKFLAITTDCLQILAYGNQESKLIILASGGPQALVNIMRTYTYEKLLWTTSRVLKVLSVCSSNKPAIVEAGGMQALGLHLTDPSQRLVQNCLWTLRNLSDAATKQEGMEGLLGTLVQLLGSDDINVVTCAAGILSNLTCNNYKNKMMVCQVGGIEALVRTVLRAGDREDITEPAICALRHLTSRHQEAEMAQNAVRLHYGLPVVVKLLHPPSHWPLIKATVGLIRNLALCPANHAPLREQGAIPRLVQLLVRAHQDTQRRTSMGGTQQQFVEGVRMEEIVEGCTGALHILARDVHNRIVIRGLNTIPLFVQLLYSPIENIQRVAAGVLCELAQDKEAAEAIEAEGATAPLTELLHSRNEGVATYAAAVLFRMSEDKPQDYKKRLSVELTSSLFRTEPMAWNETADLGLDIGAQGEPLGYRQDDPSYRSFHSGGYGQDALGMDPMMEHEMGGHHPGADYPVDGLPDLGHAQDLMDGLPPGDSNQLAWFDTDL

Molecular target: mouse AhR (pCI-mAhR) (mouse) (UniProt P30561)
Experiment: co-IP; nuclear extracts of HCT116 cells transfected with pCI-mAhR and pCI-βcat, exposed to 1 μM 3MC or DMSO with or without 100 μM MG-132 for 2 h; precipitated with anti-AhR antibody and protein G Sepharose; immunoblot for β-catenin, CUL4B and Arnt

Substance: wild-type β-catenin (pCI-βcat) (from UniProt P35222 1-781)
- binding: binds
